This is an account of results in publication PMC11649564.

Amino acid sequences for entries named in this document (tags omitted). Residues count along the entry.
UniProt Q8BYM5, residues 35-825: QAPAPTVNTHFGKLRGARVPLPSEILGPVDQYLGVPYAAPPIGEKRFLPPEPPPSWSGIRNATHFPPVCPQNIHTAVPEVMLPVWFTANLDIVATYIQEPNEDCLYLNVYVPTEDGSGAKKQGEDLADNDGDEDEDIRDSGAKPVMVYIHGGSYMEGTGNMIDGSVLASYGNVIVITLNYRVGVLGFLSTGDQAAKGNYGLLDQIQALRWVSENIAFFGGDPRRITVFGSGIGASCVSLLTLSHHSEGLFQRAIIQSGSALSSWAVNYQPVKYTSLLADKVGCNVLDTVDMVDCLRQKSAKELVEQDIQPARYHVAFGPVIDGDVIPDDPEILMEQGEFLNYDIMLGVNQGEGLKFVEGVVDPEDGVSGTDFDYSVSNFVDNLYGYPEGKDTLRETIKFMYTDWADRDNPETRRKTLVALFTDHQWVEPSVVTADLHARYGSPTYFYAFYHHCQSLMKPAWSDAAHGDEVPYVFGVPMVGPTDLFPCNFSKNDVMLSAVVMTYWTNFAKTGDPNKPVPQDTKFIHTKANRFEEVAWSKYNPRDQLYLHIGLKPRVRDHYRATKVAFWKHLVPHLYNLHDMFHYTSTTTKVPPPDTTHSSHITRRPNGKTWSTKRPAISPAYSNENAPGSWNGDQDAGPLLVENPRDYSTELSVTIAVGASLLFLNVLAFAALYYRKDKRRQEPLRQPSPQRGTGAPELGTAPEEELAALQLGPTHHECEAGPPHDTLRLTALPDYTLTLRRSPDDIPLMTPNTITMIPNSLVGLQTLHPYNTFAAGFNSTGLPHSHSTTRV

This test concerns the target T1, Myelin-associated glycoprotein (UniProt P20917).
T1 sequence: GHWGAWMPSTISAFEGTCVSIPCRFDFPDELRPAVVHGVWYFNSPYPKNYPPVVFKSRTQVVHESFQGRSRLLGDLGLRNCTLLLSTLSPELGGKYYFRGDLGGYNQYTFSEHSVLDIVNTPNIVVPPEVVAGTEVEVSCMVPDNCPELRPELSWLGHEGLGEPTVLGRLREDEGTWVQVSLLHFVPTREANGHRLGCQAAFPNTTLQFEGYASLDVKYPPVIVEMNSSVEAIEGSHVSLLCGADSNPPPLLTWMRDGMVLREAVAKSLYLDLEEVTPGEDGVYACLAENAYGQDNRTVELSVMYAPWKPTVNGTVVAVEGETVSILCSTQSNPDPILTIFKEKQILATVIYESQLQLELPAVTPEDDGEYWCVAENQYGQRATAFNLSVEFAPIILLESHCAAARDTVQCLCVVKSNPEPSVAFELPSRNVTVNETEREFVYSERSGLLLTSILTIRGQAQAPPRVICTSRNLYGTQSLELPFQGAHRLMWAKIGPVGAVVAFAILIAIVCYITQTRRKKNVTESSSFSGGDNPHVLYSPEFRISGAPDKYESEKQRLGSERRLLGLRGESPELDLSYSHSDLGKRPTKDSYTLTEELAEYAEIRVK
Description: cell aggregation assay; Nlgn3 and MAG overexpressed in HEK293 cells; tests transcellular interaction.

These are yes or no findings as the source states them, for the method shown.

With “Neuroligin-3 (from UniProt Q8BYM5 35-825)”, the binding entry is on record as “no binding”.
